Results are given in words; binding and its absence hold for the method and conditions named. In cells and extracts the contact can be indirect. Some entries that bind do so weakly or less than the wild type.
Molecular target: T1, Flotillin-2/reggie-1 (human (endogenous in Beas2B)) (UniProt Q14254)
T1 sequence: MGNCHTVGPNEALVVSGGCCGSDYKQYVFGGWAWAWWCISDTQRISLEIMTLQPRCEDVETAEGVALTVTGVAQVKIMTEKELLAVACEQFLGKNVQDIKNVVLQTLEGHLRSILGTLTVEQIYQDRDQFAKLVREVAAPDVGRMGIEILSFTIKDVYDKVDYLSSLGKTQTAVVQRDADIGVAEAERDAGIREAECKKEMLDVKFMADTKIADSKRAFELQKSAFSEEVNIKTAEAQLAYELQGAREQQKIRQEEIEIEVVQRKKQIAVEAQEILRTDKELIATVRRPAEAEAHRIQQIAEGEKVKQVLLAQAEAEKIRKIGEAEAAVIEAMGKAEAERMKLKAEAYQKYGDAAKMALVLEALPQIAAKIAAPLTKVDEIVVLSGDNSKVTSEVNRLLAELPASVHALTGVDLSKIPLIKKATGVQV
Assay: co-IP; Beas2B lysate immunoprecipitated with anti-Flot-2 antibody, protein A/G Sepharose, Western blot; cells exposed to hyperoxia (95% oxygen, 4h) or room air

The chains behind the UniProt entries cited, without tags or fusion partners. Residues count along the entry.
UniProt P25445, residues 26-335: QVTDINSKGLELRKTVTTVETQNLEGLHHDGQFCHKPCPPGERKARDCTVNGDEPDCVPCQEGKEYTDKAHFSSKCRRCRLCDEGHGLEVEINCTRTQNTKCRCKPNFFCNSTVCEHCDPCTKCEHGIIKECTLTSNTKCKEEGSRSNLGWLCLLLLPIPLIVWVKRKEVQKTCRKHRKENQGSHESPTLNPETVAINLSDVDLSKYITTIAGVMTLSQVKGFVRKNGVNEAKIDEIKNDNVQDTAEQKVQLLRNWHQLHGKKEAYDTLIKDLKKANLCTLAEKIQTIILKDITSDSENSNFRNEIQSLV
UniProt Q14790: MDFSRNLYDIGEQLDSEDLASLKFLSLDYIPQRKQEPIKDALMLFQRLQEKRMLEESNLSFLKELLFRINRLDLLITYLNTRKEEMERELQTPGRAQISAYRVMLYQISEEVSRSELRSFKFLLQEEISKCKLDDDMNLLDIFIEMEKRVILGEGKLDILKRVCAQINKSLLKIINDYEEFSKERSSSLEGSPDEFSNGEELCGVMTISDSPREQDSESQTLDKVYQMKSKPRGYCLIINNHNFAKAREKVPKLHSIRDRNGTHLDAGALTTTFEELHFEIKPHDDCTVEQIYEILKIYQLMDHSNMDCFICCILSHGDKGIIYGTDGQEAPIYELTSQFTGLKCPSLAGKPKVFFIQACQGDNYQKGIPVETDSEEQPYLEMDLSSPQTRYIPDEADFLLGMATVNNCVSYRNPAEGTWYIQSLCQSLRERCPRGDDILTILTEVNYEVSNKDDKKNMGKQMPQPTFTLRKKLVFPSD
UniProt Q13158: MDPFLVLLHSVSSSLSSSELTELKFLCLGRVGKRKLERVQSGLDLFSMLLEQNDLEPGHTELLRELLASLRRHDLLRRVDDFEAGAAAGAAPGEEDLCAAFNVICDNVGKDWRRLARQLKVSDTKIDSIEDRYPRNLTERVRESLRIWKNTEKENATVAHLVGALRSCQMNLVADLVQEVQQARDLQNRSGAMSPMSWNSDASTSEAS

| binding | Substance |
| --- | --- |
| binds | Fas (CD95/APO-1/TNFRSF6) (from UniProt P25445 26-335) (receptor) |
| binds | caspase-8 (FLICE) (from UniProt Q14790 1-479) (enzyme) |

| Substance | binding |
| --- | --- |
| Fas associated death domain (from UniProt Q13158 1-208) | binds |
